In the supplement of paper PMC4604168 (melanoma cell lines):
The other results are listed elsewhere or left out. Single values are uncertain, as repeats are few or missing.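 The apoptosis fraction was the count of cleaved-PARP antibody-stained nuclei relative to all DNA-stained nuclei, imaged in 1,536-well plates. Screening doses were set so most cells survived, and baseline and induced cleaved-PARP levels vary greatly across cell lines.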

Legend:
Test in all cases: cleaved PARP positive nuclei fraction relative to DMSO control; melanoma cells; higher = more apoptosis
Conditions in all cases: library dose: low library concentration; 72 h
MZ2-MEL = tested on: MZ2-MEL
MeWo = tested on: MeWo
RPMI7951 = tested on: RPMI7951
RVH-421 = tested on: RVH-421
SkMel28 = tested on: SkMel28
SkMel2 = tested on: SkMel2
SkMel30 = tested on: SkMel30
SkMel5 = tested on: SkMel5
UACC257 = tested on: UACC257
UACC62 = tested on: UACC62

SMILES | cleaved PARP positive nuclei fraction (MZ2-MEL) [%] | cleaved PARP positive nuclei fraction (MeWo) [%] | cleaved PARP positive nuclei fraction (RPMI7951) [%] | cleaved PARP positive nuclei fraction (RVH-421) [%] | cleaved PARP positive nuclei fraction (SkMel28) [%] | cleaved PARP positive nuclei fraction (SkMel2) [%] | cleaved PARP positive nuclei fraction (SkMel30) [%] | cleaved PARP positive nuclei fraction (SkMel5) [%] | cleaved PARP positive nuclei fraction (UACC257) [%] | cleaved PARP positive nuclei fraction (UACC62) [%]
CCCCCCCCc1ccc(CCC(N)(CO)CO)cc1 [fingolimod] + C/C(O)=C(\C#N)C(=O)Nc1cc(Br)ccc1Br [LFM-A13] (first compound 2 µM, partner dose 2 µM) | 72.3 | 92.1 | 62.8 | 83.1 | 125 | 62.3 | 156 | 283 | 84.6 | 244
C[As](C)SC[C@H](NC(=O)CC[C@H](N)C(=O)O)C(=O)NCC(=O)O [Darinaparsin] + NC(=O)Nc1cc(-c2cccc(F)c2)sc1C(=O)N[C@H]1CCCNC1 [AZD7762] (first compound 0.4 µM, partner dose 0.02 µM) | 54.4 | 44 | 105 | 57.5 | 72.1 | 239 | 64.8 | 66.4 | 49.5 | 36
C[C@@H](Oc1cc(-c2cnn(C3CCNCC3)c2)cnc1N)c1c(Cl)ccc(F)c1Cl [Crizotinib] + C/C(O)=C(\C#N)C(=O)Nc1cc(Br)ccc1Br [LFM-A13] (first compound 0.2 µM, partner dose 2 µM) | 51.2 | 32.8 | 49.2 | 61.4 | 72.7 | 44.7 | 315 | 239 | 50.2 | 84.2
C[C@]1(O)C[C@@H](c2nc(-c3ccc4ccc(-c5ccccc5)nc4c3)c3c(N)nccn32)C1 + O=C(Oc1ccc([N+](=O)[O-])cc1)N1CCC(C(O)(c2ccc3c(c2)OCO3)c2ccc3c(c2)OCO3)CC1 [JZL184] (first compound 0.4 µM, partner dose 1 µM) | 144 | 200 | 276 | 27 | 56.6 | 59 | 81.3 | 86.4 | 210 | 180
NC(=O)c1ccc(N(C(N)=O)c2c(F)cccc2F)nc1-c1ccc(F)cc1F + Cc1cc(SCc2sc(-c3ccc(C(F)(F)F)c(F)c3)nc2C)ccc1OCC(=O)O [GW0742] (first compound 0.4 µM, partner dose 2 µM) | 183 | 192 | 34.7 | 141 | 42.5 | 60.5 | 32.7 | 77.5 | 137 | 172
CC(=O)c1c(C)c2cnc(Nc3ccc(N4CCNCC4)cn3)nc2n(C2CCCC2)c1=O [palbociclib] + C/C(O)=C(\C#N)C(=O)Nc1cc(Br)ccc1Br [LFM-A13] (first compound 0.04 µM, partner dose 2 µM) | 32.8 | 103 | 57.1 | 113 | 119 | 59 | 103 | 108 | 220 | 150
CNC(=O)c1cc(Oc2ccc(NC(=O)Nc3ccc(Cl)c(C(F)(F)F)c3)cc2)ccn1 [sorafenib] + Cc1cc(SCc2sc(-c3ccc(C(F)(F)F)c(F)c3)nc2C)ccc1OCC(=O)O [GW0742] (first compound 0.4 µM, partner dose 2 µM) | 103 | 43.2 | 70.7 | 65.6 | 164 | 83.8 | 86.8 | 67.7 | 128 | 85.5
COc1cc([C@@H]2c3cc4c(cc3[C@@H](O[C@@H]3O[C@@H]5CO[C@@H](C)O[C@H]5[C@H](O)[C@H]3O)[C@H]3COC(=O)[C@H]23)OCO4)cc(OC)c1O [etoposide] + O=C(Oc1ccc([N+](=O)[O-])cc1)N1CCC(C(O)(c2ccc3c(c2)OCO3)c2ccc3c(c2)OCO3)CC1 [JZL184] (first compound 0.02 µM, partner dose 1 µM) | 184 | 121 | 36 | 44.1 | 174 | 90.1 | 34.6 | 84.2 | 55 | 96.8
N.N.[Cl][Pt][Cl] [cisplatin] + COc1ccc(COc2ccc(Cc3cnc(N)nc3N)cc2OC)cc1 [GW2580] (first compound 1.6 µM, partner dose 1 µM) | 81 | 44.5 | 129 | 204 | 37.5 | 140 | 33.5 | 67.4 | 57.3 | 82.3
Cn1c(=O)n(-c2ccc(C(C)(C)C#N)cc2)c2c3cc(-c4cnc5ccccc5c4)ccc3ncc21 + C[As](C)SC[C@H](NC(=O)CC[C@H](N)C(=O)O)C(=O)NCC(=O)O [Darinaparsin] (first compound 0.004 µM, partner dose 0.4 µM) | 103 | 581 | 177 | 141 | 59 | 128 | 119 | – | – | 169
CC[C@]1(O)C[C@H]2CN(CCc3c([nH]c4ccccc34)[C@@](C(=O)OC)(c3cc4c(cc3OC)N(C=O)[C@H]3[C@@](O)(C(=O)OC)[C@H](OC(C)=O)[C@]5(CC)C=CCN6CC[C@]43[C@@H]65)C2)C1 [vincristine] + Cc1cc(SCc2sc(-c3ccc(C(F)(F)F)c(F)c3)nc2C)ccc1OCC(=O)O [GW0742] (first compound 0.0001 µM, partner dose 2 µM) | 94.5 | 80.7 | 125 | 41.2 | 115 | 104 | 146 | 43.5 | 93.9 | 135
Cn1cnc2c(F)c(Nc3ccc(Br)cc3Cl)c(C(=O)NOCCO)cc21 [selumetinib] + C[As](C)SC[C@H](NC(=O)CC[C@H](N)C(=O)O)C(=O)NCC(=O)O [Darinaparsin] (first compound 0.015 µM, partner dose 0.4 µM) | 121 | 91.8 | 70.7 | 202 | 99.7 | 280 | 123 | – | – | 106
N.N.[Cl][Pt][Cl] [cisplatin] + CS(=O)(=O)CCNCc1ccc(-c2ccc3ncnc(Nc4ccc(OCc5cccc(F)c5)c(Cl)c4)c3c2)o1 [lapatinib] (first compound 1.6 µM, partner dose 0.8 µM) | 87.3 | 51.1 | 238 | 105 | 144 | 71 | 75.5 | – | – | 124
N.N.[Cl][Pt][Cl] [cisplatin] + COc1cc(Nc2ncc(F)c(Nc3ccc4c(n3)NC(=O)C(C)(C)O4)n2)cc(OC)c1OC [Tamatinib] (first compound 1.6 µM, partner dose 0.4 µM) | 62.4 | 106 | 53.2 | 150 | 102 | 109 | 79.7 | 41.7 | 136 | 78.6
O=c1[nH]nc(Sc2ncc([N+](=O)[O-])s2)n1-c1ccc2c(c1)OCCO2 + O=C(Oc1ccc([N+](=O)[O-])cc1)N1CCC(C(O)(c2ccc3c(c2)OCO3)c2ccc3c(c2)OCO3)CC1 [JZL184] (first compound 0.2 µM, partner dose 1 µM) | 125 | 50.5 | 111 | 50.3 | 138 | 136 | 28.1 | 75.1 | 99.3 | 123
C[As](C)SC[C@H](NC(=O)CC[C@H](N)C(=O)O)C(=O)NCC(=O)O [Darinaparsin] + Cn1nnc2c(C(N)=O)ncn2c1=O [temozolomide] (first compound 0.4 µM, partner dose 2 µM) | 104 | 152 | 94.9 | 232 | 47.2 | 102 | 145 | – | – | 70.3
CC[C@]1(O)C[C@H]2CN(CCc3c([nH]c4ccccc34)[C@@](C(=O)OC)(c3cc4c(cc3OC)N(C=O)[C@H]3[C@@](O)(C(=O)OC)[C@H](OC(C)=O)[C@]5(CC)C=CCN6CC[C@]43[C@@H]65)C2)C1 [vincristine] + C/C(O)=C(\C#N)C(=O)Nc1cc(Br)ccc1Br [LFM-A13] (first compound 0.0001 µM, partner dose 2 µM) | 135 | 103 | 85.9 | 38.4 | 337 | 149 | 341 | 87 | 256 | 333
Cn1cc(C2=C(c3cn(C4CCN(Cc5ccccn5)CC4)c4ccccc34)C(=O)NC2=O)c2ccccc21 [Enzastaurin] + c1cc(-c2cnn3cc(-c4ccc(OCCN5CCCCC5)cc4)cnc23)ccn1 [Dorsomorphin] (first compound 0.8 µM, partner dose 0.4 µM) | 30.1 | 33.7 | 62.5 | 56.5 | 172 | 40 | 22.7 | 71.8 | 168 | 121
CC[C@]1(O)C[C@H]2CN(CCc3c([nH]c4ccccc34)[C@@](C(=O)OC)(c3cc4c(cc3OC)N(C=O)[C@H]3[C@@](O)(C(=O)OC)[C@H](OC(C)=O)[C@]5(CC)C=CCN6CC[C@]43[C@@H]65)C2)C1 [vincristine] + Cn1cc(C2=C(c3cn(C4CCN(Cc5ccccn5)CC4)c4ccccc34)C(=O)NC2=O)c2ccccc21 [Enzastaurin] (first compound 0.0001 µM, partner dose 0.8 µM) | 168 | 90.3 | 116 | 145 | 79 | 28.2 | 57.9 | – | – | 198
Cn1cc(C2=C(c3cn(C4CCN(Cc5ccccn5)CC4)c4ccccc34)C(=O)NC2=O)c2ccccc21 [Enzastaurin] + COc1ccc(COc2ccc(Cc3cnc(N)nc3N)cc2OC)cc1 [GW2580] (first compound 0.8 µM, partner dose 1 µM) | 118 | 80.8 | 53.4 | 62.6 | 46 | 270 | 30.7 | 80.2 | 187 | 51.1
Cc1cc(Nc2cc(N3CCN(C)CC3)nc(/C=C/c3ccccc3)n2)n[nH]1 + C[As](C)SC[C@H](NC(=O)CC[C@H](N)C(=O)O)C(=O)NCC(=O)O [Darinaparsin] (first compound 0.04 µM, partner dose 0.4 µM) | 167 | 292 | 76.3 | 155 | 145 | 112 | 154 | – | – | 88.6
C[As](C)SC[C@H](NC(=O)CC[C@H](N)C(=O)O)C(=O)NCC(=O)O [Darinaparsin] + CN(C)S(=O)(=O)c1ccc2c(c1)/C(=C/c1cc3c([nH]1)CCCC3)C(=O)N2 [SU6656] (first compound 0.4 µM, partner dose 0.4 µM) | 55.2 | 111 | 73.5 | 103 | 86.8 | 36.2 | 70 | 46.4 | 90.4 | 30.4

Record cards (already shown). Values in the order: cleaved PARP positive nuclei fraction (MZ2-MEL) [%] | cleaved PARP positive nuclei fraction (MeWo) [%] | cleaved PARP positive nuclei fraction (RPMI7951) [%] | cleaved PARP positive nuclei fraction (RVH-421) [%] | cleaved PARP positive nuclei fraction (SkMel28) [%] | cleaved PARP positive nuclei fraction (SkMel2) [%] | cleaved PARP positive nuclei fraction (SkMel30) [%] | cleaved PARP positive nuclei fraction (SkMel5) [%] | cleaved PARP positive nuclei fraction (UACC257) [%] | cleaved PARP positive nuclei fraction (UACC62) [%]
C[As](C)SC[C@H](NC(=O)CC[C@H](N)C(=O)O)C(=O)NCC(=O)O [Darinaparsin] + CN(C)S(=O)(=O)c1ccc2c(c1)/C(=C/c1cc3c([nH]1)CCCC3)C(=O)N2 [SU6656] (first compound 0.4 µM, partner dose 0.4 µM) is entered as 55.2 | 111 | 73.5 | 103 | 86.8 | 36.2 | 70 | 46.4 | 90.4 | 30.4
O=c1[nH]nc(Sc2ncc([N+](=O)[O-])s2)n1-c1ccc2c(c1)OCCO2 + O=C(Oc1ccc([N+](=O)[O-])cc1)N1CCC(C(O)(c2ccc3c(c2)OCO3)c2ccc3c(c2)OCO3)CC1 [JZL184] (first compound 0.2 µM, partner dose 1 µM) is entered as 125 | 50.5 | 111 | 50.3 | 138 | 136 | 28.1 | 75.1 | 99.3 | 123
